Assay results from patent US10596173B2, “Combination therapy of an HBV capsid assembly inhibitor and an interferon” (Hoffmann-La Roche Inc., priority 2015, dated 2020).
At least one read-out could not be matched to a standard name with certainty.

System: HBV
Assay: Combination study with Roferon in HBV infected HepaRG cells: HBV DNA in supernatant by qPCR, CalcuSyn and isobologram analysis
Assay type: cell-based, HBV (genotype D)
Details: individual compound, mean of n independent experiments
Description: HepG2.2.15 cells were cultured in DMEM+Glutamax I medium (Gibco, #21885) supplemented with 10% FBS, 1% Pen/Strep (Gibco, #15140) and G-418 ([…]) and used for production of infectious HBV (genotype D). 90% confluent cells from three T175 flasks were trypsinized and transferred into one collagen coated hyperflask (550 mL). Once the cells were confluent, medium was changed to DMEM+Glutamax I medium with 1% DMSO and 2.5% FBS. Once the cells were slightly over confluent, medium was changed to DMEM/F12+Glutamax I medium (Gibco, #31331) supplemented with MEM non-essential aminoacids (6 mL, Gibco, #11140), P/S (6 mL), sodium pyruvate (6 mL), DMSO (9 mL) and FBS (10 mL) (all per 500 mL medium). Medium was changed every 3 days and supernatants were harvested for 2 weeks. Virus was concentrated from supernatants by PEG precipitation and the titer (genome equivalent (GE)/mL) was determined by qPCR. […]
The combination experimental results were analyzed using the model described by Craig et al. (Craig J, Duncan I, Whittaker L and Roberts N. (1990). Antiviral synergy between inhibitors of HIV proteinase and reverse transcriptase. Antiviral Chem. Chemother. 4:161-166). […] To relate these two values and describe the degree of synergy/additivity/antagonism between them, the Fractional Inhibitory Concentration (FIC) was first calculated and used to generate isobolograms. […]

With `Nc1ccn([C@@H]2CS[C@H](CO)O2)c(=O)n1` [Compound 3TC, Lamivudine] as the compound, how does the EC50 read?
The EC50 was 13.7 nM.
